The source of these data is article PMC10108353 (Journal of Medicinal Chemistry, 2023).

The nature of the data set: general procedure: Fmoc solid-phase peptide synthesis; Wang resin (0.3 g, 1.1 mmol/g loading capacity); DCC/HOBt; HBTU/HOBt/DIPEA for cyclisation. To be noted: for crude HPLC purity / crude yield: whole synthesis; for crude HPLC purity / final HPLC purity: analytical RP HPLC on C18; for crude yield: on resin loading; for final HPLC purity: late stage modification step.

Regarding H-(R)-Phu-Leu-Ala-Val-(S)-Asp-OBn, the “crude HPLC purity” value came to 79% and the crude yield is 40%.
In the case of c[(S)-Phu-LDV-(R)-β^3Ala], the “final HPLC purity” value worked out at 97%.
Consider H-(S)-Phu-Leu-Asp(OBn)-Val-(S)-Asp-nPr, for which the “crude HPLC purity” value is reported as 82% and the crude yield worked out at 45%.
In the same order, the values of H-(R)-Phu-Leu-Asp(OBn)-Val-(S)-Asp-OBn are 79% and 34%.
For the substance “H-(S)-Phu-Leu-Asp(OBn)-Val-(R)-β3homoAla-OH”, the “crude HPLC purity” value is on record as 75% and the crude yield is given as 27%.
Regarding c[(S)-Phu-LDV-(S)-isoAsp(NHPr)], the “final HPLC purity” value was 98%.
In the case of H-(S)-Phu-Leu-Ala-Val-(S)-Asp-OBn, the “crude HPLC purity” value amounted to 83% and the crude yield came to 46%.
For H-(S)-Phu-Leu-Asp(OBn)-Val-(S)-Asp-OBn, in that order: 80% and 22%.
For H-(S)-Phu-Phe-Ala-Val-(S)-Asp-OBn, the “crude HPLC purity” value is on record as 85% and the crude yield was 36%.
For c[(R)-Phu-LD-Phg-(S)-isoAsp], the “final HPLC purity” value is listed as 96%.
Still for that read-out and setting: as for c[(S)-Phu-FDV-(S)-isoAsp], the figure is 97%; as for c[(S)-Phu-LAV-(S)-isoAsp], 95%.
On to H-(S)-Phu-Leu-Asp(OBn)-Val-(R)-Asp-OBn, for which the “crude HPLC purity” value is listed as 81% and the crude yield came to 24%.
Consider c[(S)-Phu-FAV-(S)-isoAsp], for which the “final HPLC purity” value is 98%.
As for H-(R)-Phu-Leu-Asp(OBn)-Val-(R)-Asp-OBn, the “crude HPLC purity” value was 85% and the crude yield came to 44%.
In the same order, the values of H-(S)-Phu-Phe-Asp(OBn)-Val-(S)-Asp-OBn are 73% and 48%.
For c[(S)-Phu-LDV-(S)-isoAsp], the “final HPLC purity” value was 98%.
The same measure, in the same setting: as for c[(R)-Phu-LDV-(R)-isoAsp], the figure is 99%.
With c[(R)-Phu-LAV-(S)-isoAsp], the “final HPLC purity” value is 97%.
Take c[(R)-Phu-LDV-(R)-β^3Ala]: the “final HPLC purity” value is listed as 98%.
c[(S)-Phu-LDV-(R)-isoAsp]: the “final HPLC purity” value is recorded as 97%.
The same measure, in the same setting: as for c[(R)-Phu-LDV-(S)-isoAsp], the figure is 97%.
For the substance H-(R)-Phu-Leu-Asp(OBn)-Phg-(S)-Asp-OBn, the “crude HPLC purity” value is listed as 74% and the crude yield is 37%.
For “H-(R)-Phu-Leu-Asp(OBn)-Val-(R)-β3homoAla-OH”, in that order: 78% and 47%.
